Results published in the supplement of paper PMC10849652.
Some of the results follow.

The chains behind the UniProt entries cited, without tags or fusion partners. Where a name states a change or a piece, a line headed by the entry shows the natural chain unless it says otherwise.
UniProt Q9UNS2: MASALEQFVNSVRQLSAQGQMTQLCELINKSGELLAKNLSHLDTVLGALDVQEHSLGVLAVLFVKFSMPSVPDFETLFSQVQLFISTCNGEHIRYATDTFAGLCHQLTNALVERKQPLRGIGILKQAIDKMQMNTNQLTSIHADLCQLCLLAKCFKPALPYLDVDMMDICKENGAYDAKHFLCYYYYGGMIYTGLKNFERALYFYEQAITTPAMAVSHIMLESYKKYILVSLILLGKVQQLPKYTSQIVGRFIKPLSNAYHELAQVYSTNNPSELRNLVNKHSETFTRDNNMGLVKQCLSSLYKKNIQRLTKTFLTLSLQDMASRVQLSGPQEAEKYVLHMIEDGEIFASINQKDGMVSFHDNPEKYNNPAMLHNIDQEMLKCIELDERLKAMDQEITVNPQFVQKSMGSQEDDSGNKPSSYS
UniProt Q16630, whole entry, looked up: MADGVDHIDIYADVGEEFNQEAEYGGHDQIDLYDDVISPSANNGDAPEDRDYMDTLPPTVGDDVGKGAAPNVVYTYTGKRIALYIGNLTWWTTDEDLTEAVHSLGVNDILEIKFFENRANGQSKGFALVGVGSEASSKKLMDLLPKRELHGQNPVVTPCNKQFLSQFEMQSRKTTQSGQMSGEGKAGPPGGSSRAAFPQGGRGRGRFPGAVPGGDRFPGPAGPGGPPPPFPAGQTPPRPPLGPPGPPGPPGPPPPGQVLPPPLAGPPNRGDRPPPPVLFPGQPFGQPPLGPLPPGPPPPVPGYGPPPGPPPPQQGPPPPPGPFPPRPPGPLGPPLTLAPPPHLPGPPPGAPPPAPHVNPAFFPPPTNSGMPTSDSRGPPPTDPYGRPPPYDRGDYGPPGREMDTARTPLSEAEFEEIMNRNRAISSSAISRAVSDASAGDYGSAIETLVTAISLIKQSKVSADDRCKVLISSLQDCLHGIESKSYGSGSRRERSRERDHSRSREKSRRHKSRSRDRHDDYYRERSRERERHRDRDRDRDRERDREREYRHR
UniProt Q9Y6G5, whole entry, looked up: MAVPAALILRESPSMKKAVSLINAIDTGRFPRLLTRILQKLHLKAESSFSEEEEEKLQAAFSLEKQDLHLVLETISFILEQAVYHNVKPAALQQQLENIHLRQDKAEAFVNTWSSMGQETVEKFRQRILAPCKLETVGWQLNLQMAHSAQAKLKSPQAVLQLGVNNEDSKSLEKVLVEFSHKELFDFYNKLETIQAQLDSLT
UniProt Q9UIV1, whole entry, looked up: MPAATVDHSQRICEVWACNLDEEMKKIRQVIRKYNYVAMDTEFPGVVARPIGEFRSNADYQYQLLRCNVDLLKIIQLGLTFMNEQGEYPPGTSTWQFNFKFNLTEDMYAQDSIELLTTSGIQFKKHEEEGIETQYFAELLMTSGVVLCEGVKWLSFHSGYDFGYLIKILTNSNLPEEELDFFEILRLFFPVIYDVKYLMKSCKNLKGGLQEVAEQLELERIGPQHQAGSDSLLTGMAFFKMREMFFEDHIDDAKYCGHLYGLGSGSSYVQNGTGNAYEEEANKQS
UniProt Q5HYK3: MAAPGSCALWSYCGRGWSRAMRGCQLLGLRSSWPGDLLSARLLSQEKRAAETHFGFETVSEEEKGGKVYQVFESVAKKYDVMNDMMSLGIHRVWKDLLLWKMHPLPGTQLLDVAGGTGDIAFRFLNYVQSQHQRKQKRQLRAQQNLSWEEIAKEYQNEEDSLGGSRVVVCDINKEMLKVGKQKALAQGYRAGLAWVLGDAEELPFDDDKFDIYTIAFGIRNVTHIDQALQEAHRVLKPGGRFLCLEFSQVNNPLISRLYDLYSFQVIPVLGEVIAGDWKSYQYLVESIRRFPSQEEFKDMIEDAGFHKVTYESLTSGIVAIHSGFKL
UniProt P50416: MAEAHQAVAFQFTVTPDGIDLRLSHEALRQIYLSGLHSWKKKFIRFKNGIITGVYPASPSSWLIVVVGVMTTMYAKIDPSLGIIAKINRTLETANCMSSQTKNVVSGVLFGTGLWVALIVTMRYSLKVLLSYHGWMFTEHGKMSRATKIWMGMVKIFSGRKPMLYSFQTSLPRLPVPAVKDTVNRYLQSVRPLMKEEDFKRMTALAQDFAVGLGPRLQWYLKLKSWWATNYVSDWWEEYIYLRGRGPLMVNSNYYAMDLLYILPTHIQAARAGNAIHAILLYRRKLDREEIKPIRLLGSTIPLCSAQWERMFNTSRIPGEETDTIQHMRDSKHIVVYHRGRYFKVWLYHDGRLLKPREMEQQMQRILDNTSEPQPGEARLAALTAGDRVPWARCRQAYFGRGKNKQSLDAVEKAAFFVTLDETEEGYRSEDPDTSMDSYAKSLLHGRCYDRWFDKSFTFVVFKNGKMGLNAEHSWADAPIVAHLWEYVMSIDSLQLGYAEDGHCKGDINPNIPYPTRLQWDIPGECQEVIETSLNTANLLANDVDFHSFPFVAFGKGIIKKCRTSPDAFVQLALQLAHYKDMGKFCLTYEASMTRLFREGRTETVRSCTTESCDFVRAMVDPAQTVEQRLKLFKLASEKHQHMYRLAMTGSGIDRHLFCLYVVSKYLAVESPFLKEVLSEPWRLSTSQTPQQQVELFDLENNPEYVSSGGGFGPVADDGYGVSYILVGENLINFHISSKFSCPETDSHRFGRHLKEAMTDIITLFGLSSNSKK
UniProt Q9NYJ1, whole entry, looked up: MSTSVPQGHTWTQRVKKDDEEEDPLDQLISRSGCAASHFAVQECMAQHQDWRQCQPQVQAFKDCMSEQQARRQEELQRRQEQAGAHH
UniProt Q49B96: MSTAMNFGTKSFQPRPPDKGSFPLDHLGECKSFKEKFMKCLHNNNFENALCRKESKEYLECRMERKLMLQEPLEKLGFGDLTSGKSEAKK
UniProt Q86WW8: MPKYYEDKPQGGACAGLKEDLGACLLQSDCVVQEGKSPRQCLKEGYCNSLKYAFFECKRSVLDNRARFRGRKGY
UniProt O14579: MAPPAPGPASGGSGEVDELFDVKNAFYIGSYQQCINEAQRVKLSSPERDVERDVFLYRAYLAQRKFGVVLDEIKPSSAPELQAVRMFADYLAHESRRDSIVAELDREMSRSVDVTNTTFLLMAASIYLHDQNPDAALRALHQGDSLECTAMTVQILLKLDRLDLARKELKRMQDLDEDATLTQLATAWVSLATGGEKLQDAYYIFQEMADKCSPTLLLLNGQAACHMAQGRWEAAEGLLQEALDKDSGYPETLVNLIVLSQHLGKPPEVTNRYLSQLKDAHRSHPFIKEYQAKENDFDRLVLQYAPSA
UniProt Q05707: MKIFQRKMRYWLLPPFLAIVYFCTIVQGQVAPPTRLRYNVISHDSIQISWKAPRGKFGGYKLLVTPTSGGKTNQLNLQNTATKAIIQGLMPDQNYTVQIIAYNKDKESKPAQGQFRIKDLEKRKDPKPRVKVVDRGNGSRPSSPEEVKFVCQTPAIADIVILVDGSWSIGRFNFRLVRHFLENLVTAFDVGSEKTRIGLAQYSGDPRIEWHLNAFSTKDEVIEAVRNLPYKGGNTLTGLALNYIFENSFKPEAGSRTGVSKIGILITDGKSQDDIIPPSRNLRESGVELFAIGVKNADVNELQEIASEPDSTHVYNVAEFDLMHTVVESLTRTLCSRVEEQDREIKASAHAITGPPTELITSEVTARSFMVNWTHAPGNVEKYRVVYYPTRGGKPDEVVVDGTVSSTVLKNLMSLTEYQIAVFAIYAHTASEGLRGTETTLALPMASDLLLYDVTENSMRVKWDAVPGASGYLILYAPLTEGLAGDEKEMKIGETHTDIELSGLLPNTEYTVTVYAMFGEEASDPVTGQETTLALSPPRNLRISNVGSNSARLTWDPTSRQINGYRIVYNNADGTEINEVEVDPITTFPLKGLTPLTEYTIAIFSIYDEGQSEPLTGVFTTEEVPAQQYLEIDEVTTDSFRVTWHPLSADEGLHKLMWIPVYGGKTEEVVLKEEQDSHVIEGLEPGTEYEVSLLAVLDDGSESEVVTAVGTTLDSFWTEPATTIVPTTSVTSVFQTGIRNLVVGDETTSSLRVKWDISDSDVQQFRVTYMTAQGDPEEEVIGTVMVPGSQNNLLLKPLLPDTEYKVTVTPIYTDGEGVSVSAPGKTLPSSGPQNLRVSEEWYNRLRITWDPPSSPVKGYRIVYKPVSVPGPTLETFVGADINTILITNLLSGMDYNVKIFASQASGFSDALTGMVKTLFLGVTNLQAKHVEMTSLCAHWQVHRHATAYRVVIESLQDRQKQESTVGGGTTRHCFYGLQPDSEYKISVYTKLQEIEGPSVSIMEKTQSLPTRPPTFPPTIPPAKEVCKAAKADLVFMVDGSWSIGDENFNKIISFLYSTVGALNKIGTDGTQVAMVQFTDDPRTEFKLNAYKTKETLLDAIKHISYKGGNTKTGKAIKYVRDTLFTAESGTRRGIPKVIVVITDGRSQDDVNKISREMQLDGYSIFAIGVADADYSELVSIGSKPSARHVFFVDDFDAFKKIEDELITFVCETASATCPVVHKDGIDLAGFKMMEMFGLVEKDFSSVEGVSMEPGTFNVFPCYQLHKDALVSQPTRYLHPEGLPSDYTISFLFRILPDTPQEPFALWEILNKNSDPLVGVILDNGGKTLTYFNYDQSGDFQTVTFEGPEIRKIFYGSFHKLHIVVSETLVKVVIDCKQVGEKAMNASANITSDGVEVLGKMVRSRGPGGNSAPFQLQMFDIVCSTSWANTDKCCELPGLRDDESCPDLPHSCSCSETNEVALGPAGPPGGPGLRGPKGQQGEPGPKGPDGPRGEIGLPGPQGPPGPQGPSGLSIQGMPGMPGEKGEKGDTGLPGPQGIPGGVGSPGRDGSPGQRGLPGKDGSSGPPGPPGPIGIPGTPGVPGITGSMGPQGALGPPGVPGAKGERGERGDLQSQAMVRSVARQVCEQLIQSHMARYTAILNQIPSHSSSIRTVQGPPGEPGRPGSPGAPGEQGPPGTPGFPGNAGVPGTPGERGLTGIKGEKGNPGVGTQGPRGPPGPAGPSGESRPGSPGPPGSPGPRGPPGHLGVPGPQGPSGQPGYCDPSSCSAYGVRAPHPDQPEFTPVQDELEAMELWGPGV
UniProt Q9Y2B0: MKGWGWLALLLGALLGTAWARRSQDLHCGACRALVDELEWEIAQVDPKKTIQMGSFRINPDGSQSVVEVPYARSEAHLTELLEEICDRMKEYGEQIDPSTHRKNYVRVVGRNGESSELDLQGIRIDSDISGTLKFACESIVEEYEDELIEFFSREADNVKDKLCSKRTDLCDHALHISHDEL
UniProt Q9BSW2: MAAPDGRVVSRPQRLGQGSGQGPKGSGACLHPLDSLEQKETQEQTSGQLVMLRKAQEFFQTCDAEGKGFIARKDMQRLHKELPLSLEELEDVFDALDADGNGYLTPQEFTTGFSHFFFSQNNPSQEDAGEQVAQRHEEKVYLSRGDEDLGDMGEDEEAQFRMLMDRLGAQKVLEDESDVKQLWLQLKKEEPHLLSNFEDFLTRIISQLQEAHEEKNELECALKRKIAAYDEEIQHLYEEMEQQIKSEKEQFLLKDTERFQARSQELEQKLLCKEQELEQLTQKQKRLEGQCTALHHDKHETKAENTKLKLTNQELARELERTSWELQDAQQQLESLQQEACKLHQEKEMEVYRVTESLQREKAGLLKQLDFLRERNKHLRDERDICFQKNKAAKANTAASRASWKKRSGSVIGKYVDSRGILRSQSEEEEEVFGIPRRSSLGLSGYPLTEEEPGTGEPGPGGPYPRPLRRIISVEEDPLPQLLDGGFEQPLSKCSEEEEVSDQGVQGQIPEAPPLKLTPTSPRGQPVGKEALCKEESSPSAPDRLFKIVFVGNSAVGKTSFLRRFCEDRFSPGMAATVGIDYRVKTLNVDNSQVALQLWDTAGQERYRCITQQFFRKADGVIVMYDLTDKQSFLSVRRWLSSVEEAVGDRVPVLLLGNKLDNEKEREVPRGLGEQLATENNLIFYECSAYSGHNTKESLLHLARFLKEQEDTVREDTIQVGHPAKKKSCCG
UniProt O75175, whole entry, looked up: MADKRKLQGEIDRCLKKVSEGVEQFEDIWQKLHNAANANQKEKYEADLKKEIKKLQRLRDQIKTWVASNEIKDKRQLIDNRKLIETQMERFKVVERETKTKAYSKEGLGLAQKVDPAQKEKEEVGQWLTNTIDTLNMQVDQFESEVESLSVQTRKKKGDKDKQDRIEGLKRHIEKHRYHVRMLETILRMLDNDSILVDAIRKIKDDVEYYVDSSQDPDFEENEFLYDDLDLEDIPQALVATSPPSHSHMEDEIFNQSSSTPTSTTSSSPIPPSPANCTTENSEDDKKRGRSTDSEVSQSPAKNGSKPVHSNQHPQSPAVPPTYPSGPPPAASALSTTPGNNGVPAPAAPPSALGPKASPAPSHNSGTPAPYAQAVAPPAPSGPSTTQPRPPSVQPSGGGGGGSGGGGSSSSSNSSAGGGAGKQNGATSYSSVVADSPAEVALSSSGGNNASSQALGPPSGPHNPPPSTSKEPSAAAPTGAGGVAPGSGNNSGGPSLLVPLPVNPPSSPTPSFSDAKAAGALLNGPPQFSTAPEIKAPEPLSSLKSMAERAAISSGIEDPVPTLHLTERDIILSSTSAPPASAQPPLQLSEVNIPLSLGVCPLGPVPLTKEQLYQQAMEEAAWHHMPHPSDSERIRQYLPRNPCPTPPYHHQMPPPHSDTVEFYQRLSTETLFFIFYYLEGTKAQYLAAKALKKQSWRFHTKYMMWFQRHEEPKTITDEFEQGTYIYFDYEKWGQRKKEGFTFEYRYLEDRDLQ

Legend:
Experiment in all cases: log2 fold change, soluble protein after heating vs DMSO (PISA); higher = thermal stabilisation; K562 lysate, 10 uM; active = over 0.2 and 3.5 SD of the protein, either way, in both replicates (recomputed)
[1] = compound: C1=CC=C(C=C1)[C@H](COC2=CC3=C(C=C2)NC(=O)N3)NC(=O)C4=CC=CN(C4=O)CC5=CC(=C(C=C5)F)F
Procedure, shortened: (§1)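 K562 pellets were dounce-homogenised in PBS pH 7.4 containing 1 mM MgCl2, and the crude extract, at 1 mg/mL protein, was exposed to 10 μM compound for 30 min. Aliquots were heated for 3 min across 48°C-58°C, pooled, brought to 0.5% NP-40 at 4°C and spun at 21,000xg for 90 min, with the supernatant taken as soluble protein. TMTpro 16plex LC-MS/MS with equalised channel sums quantified that protein. Values are log-two fold changes in thermal stability relative to solvent controls, taken from duplicates.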

[2] = compound: CC1=C(SC2=C1C(=N[C@H](C3=NN=C(N32)C)CC(=O)N)C4=CC=C(C=C4)Cl)C
Procedure, shortened: as §1

[3] = compound: CC1=C2C(=CC=C1)N=C(N(C2=O)C3=CC=CC=C3C)CN4C=NC5=C(N=CN=C54)N
Procedure, shortened: as §1

[4] = compound: Cc1sc2c(c1C)C(c1ccc(Cl)cc1)=N[C@@H](CC(=O)OC(C)(C)C)c1nnc(C)n1-2
Procedure, shortened: as §1

[5] = compound: c1ccc([C@@H]2C[C@H]2NC2CCNCC2)cc1
Procedure, shortened: as §1

Measured: log2 fold change

COPS3 (UniProt Q9UNS2)
inactive: [1] 0.036 | [2] 0.014 | [3] 0.016 | [4] -0.027 | [5] -0.035

CPPED1 (UniProt Q9BRF8)
inactive: [1] -0.001 | [2] 0.022 | [3] -0.024 | [4] -0.076 | [5] -0.111

CNP (UniProt P09543)
inactive: [1] -0.022 | [2] 0.001 | [3] 0.036 | [4] 0.016 | [5] 0.021

COX11 (UniProt Q9Y6N1)
inactive: [1] 0.007 | [2] 0 | [3] -0.005 | [4] 0.005 | [5] 0.056

CPSF6 isoform 2 (UniProt Q16630)
inactive: [1] -0.012 | [2] 0.007 | [3] -0.029 | [4] 0.011 | [5] 0.069

COMMD10 (UniProt Q9Y6G5)
inactive: [1] 0.023 | [2] -0.043 | [3] -0.071 | [4] -0.03 | [5] 0.02

CPSF1 (UniProt Q10570)
inactive: [1] -0.036 | [2] 0.001 | [3] 0.024 | [4] -0.014 | [5] 0.003

CNOT7 (UniProt Q9UIV1)
inactive: [1] -0.044 | [2] 0.028 | [3] 0.01 | [4] 0.023 | [5] 0.028

COLGALT1 (UniProt Q8NBJ5)
inactive: [1] 0.004 | [2] -0.024 | [3] 0.028 | [4] 0.003 | [5] 0.001

COMMD5 (UniProt Q9GZQ3)
inactive: [1] 0.001 | [2] -0.004 | [3] 0.065 | [4] -0.017 | [5] 0.013

COQ5 (UniProt Q5HYK3)
inactive: [1] 0.074 | [2] 0.007 | [3] -0.027 | [4] -0.092 | [5] 0.027

CPT1A (UniProt P50416)
inactive: [1] 0.042 | [2] 0.03 | [3] -0.004 | [4] 0.07 | [5] 0.011

COPS5 (UniProt Q92905)
inactive: [1] 0.009 | [2] -0.002 | [3] 0.004 | [4] -0.009 | [5] 0.04

CNOT4 isoform 6 (UniProt O95628)
inactive: [1] -0.042 | [2] -0.02 | [3] -0.028 | [4] 0.051 | [5] -0.004

COA4 isoform 2 (UniProt Q9NYJ1)
inactive: [1] -0.06 | [2] -0.017 | [3] -0.051 | [4] -0.06 | [5] 0.132

COA3 (UniProt Q9Y2R0)
inactive: [1] 0.055 | [2] -0.045 | [3] -0.004 | [4] -0.142 | [5] -0.041

COMMD7 (UniProt Q86VX2)
inactive: [1] -0.001 | [2] -0.048 | [3] -0.004 | [4] 0.036 | [5] -0.064

CNOT11 (UniProt Q9UKZ1)
inactive: [1] 0.005 | [2] -0.097 | [3] 0.008 | [4] 0.001 | [5] -0.033

2 entries drawn at random from those above:
COMMD10 (UniProt Q9Y6G5)
inactive: [1] 0.023 | [2] -0.043 | [3] -0.071 | [4] -0.03 | [5] 0.02

COA3 (UniProt Q9Y2R0)
inactive: [1] 0.055 | [2] -0.045 | [3] -0.004 | [4] -0.142 | [5] -0.041

(continued)

COX19 (UniProt Q49B96)
inactive: [1] -0.047 | [2] -0.013 | [3] -0.107 | [4] -0.03 | [5] 0.004

COPS6 (UniProt Q7L5N1)
inactive: [1] -0.091 | [2] -0.087 | [3] -0.039 | [4] 0.053 | [5] 0.025

CNOT4 isoform 9 (UniProt O95628)
inactive: [1] -0.173 | [2] 0.081 | [3] -0.014 | [4] -0.066 | [5] -0.551

COA5 (UniProt Q86WW8)
inactive: [1] 0.02 | [2] 0.035 | [3] 0.152 | [4] -0.012 | [5] 0.033

COMT (UniProt P21964)
inactive: [1] -0.007 | [2] -0.01 | [3] -0.016 | [4] 0.062 | [5] 0.054

COL15A1 (UniProt P39059)
inactive: [1] 0.029 | [2] 0.001 | [3] 0.118 | [4] 0.023 | [5] 0.004

CNOT6L (UniProt Q96LI5)
inactive: [1] -0.014 | [2] 0.017 | [3] -0.013 | [4] -0.049 | [5] -0.164

COPE (UniProt O14579)
inactive: [1] -0.021 | [2] -0.051 | [3] -0.001 | [4] -0.05 | [5] -0.084

COL14A1 (UniProt Q05707)
inactive: [1] -0.037 | [2] 0.298 | [3] -0.064 | [4] -0.049 | [5] -0.055

COPB2 (UniProt P35606)
inactive: [1] -0.018 | [2] 0.004 | [3] -0.019 | [4] -0.013 | [5] -0.025

CNPY2 (UniProt Q9Y2B0)
inactive: [1] 0.003 | [2] -0.043 | [3] -0.041 | [4] -0.002 | [5] 0.014

CRACR2A isoform 2 (UniProt Q9BSW2)
inactive: [1] 0.064 | [2] 0.049 | [3] -0.033 | [4] 0.031 | [5] 0.001

COQ8A (UniProt Q8NI60)
inactive: [1] 0.048 | [2] 0.065 | [3] 0.03 | [4] 0.007 | [5] 0

CNOT1 (UniProt A5YKK6)
inactive: [1] -0.026 | [2] 0.015 | [3] 0.034 | [4] 0.004 | [5] 0.01

CNBP isoform 4 (UniProt P62633)
inactive: [1] 0.065 | [2] -0.031 | [3] -0.009 | [4] -0.035 | [5] -0.002

CNN1 (UniProt P51911)
inactive: [1] 0.019 | [2] -0.005 | [3] -0.019 | [4] -0.008 | [5] -0.02

CNN2 (UniProt Q99439)
inactive: [1] 0.012 | [2] -0.047 | [3] -0.049 | [4] 0.051 | [5] -0.03

CORO2A (UniProt Q92828)
inactive: [1] -0.204 | [2] 0.056 | [3] -0.013 | [4] 0.087 | [5] 0.028

COCH (UniProt O43405)
inactive: [1] 0.037 | [2] 0.006 | [3] 0.02 | [4] -0.045 | [5] -0.067

CPNE7 (UniProt Q9UBL6)
inactive: [1] 0.003 | [2] 0.013 | [3] 0.088 | [4] -0.093 | [5] -0.008

CNTRL (UniProt Q7Z7A1)
inactive: [1] 0.047 | [2] 0.018 | [3] 0.009 | [4] 0.021 | [5] -0.069

COPZ1 isoform 4 (UniProt P61923)
inactive: [1] -0.101 | [2] -0.04 | [3] 0.06 | [4] 0.057 | [5] 0.096

CPEB4 (UniProt Q17RY0)
inactive: [1] -0.114 | [2] 0.042 | [3] 0.091 | [4] -0.09 | [5] -0.126

COPG1 (UniProt Q9Y678)
inactive: [1] -0.005 | [2] -0.004 | [3] 0.014 | [4] -0.011 | [5] 0.001

COPS8 (UniProt Q99627)
inactive: [1] -0.077 | [2] -0.047 | [3] 0.04 | [4] -0.033 | [5] 0.011

COMMD8 (UniProt Q9NX08)
inactive: [1] 0.054 | [2] -0.016 | [3] 0.112 | [4] -0.015 | [5] 0.097

COPA isoform 2 (UniProt P53621)
inactive: [1] 0.011 | [2] 0.015 | [3] 0.013 | [4] -0.017 | [5] 0.024

CPSF2 (UniProt Q9P2I0)
inactive: [1] -0.039 | [2] -0.003 | [3] 0.014 | [4] 0.007 | [5] -0.001

CORO1A (UniProt P31146)
inactive: [1] -0.024 | [2] 0.021 | [3] 0.004 | [4] 0.078 | [5] -0.019

COPS4 (UniProt Q9BT78)
inactive: [1] -0.024 | [2] -0.083 | [3] -0.022 | [4] 0.005 | [5] 0.037

COL18A1 (UniProt P39060)
inactive: [1] 0.018 | [2] 0.052 | [3] 0.017 | [4] -0.052 | [5] 0.034

CNOT3 (UniProt O75175)
inactive: [1] -0.045 | [2] 0.022 | [3] 0.007 | [4] -0.041 | [5] 0.023

CORO7 isoform 3 (UniProt P57737)
inactive: [1] -0.003 | [2] -0.006 | [3] 0.033 | [4] 0.018 | [5] 0.036

COX4I1 (UniProt P13073)
inactive: [1] -0.036 | [2] 0.022 | [3] -0.019 | [4] -0.015 | [5] -0.022
